# Measurements from the supplement of paper PMC4604168 (melanoma cell lines).
# This is one part of the list. Many values rest on one well or one pass, so single values are uncertain.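 The apoptosis fraction was the count of cleaved-PARP antibody-stained nuclei relative to all DNA-stained nuclei, imaged in 1,536-well plates. Screening doses were set so most cells survived, and baseline and induced cleaved-PARP levels vary greatly across cell lines.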
# Legend:
# Assay in all cases: cleaved PARP positive nuclei fraction relative to DMSO control; melanoma cells; higher = more apoptosis
# Details in all cases: library dose: low library concentration; 72 h
# MZ2-MEL = tested on: MZ2-MEL
# MeWo = tested on: MeWo
# RPMI7951 = tested on: RPMI7951
# RVH-421 = tested on: RVH-421
# SkMel28 = tested on: SkMel28
# SkMel2 = tested on: SkMel2
# SkMel30 = tested on: SkMel30
# UACC62 = tested on: UACC62
# WM115 = tested on: WM115
# WM1716 = tested on: WM1716
# WM1745 = tested on: WM1745
# WM3526 = tested on: WM3526
# WM3619 = tested on: WM3619
# WM451Lu = tested on: WM451Lu
SMILES,cleaved PARP positive nuclei fraction (MZ2-MEL) [%],cleaved PARP positive nuclei fraction (MeWo) [%],cleaved PARP positive nuclei fraction (RPMI7951) [%],cleaved PARP positive nuclei fraction (RVH-421) [%],cleaved PARP positive nuclei fraction (SkMel28) [%],cleaved PARP positive nuclei fraction (SkMel2) [%],cleaved PARP positive nuclei fraction (SkMel30) [%],cleaved PARP positive nuclei fraction (UACC62) [%],cleaved PARP positive nuclei fraction (WM115) [%],cleaved PARP positive nuclei fraction (WM1716) [%],cleaved PARP positive nuclei fraction (WM1745) [%],cleaved PARP positive nuclei fraction (WM3526) [%],cleaved PARP positive nuclei fraction (WM3619) [%],cleaved PARP positive nuclei fraction (WM451Lu) [%]
"CC1(C)CCC(c2ccc(Cl)cc2)=C(CN2CCN(c3ccc(C(=O)NS(=O)(=O)c4ccc(N[C@H](CCN5CCOCC5)CSc5ccccc5)c(S(=O)(=O)C(F)(F)F)c4)cc3)CC2)C1 + COc1ccc(Cl)c(Nc2nc3ccccc3nc2NS(=O)(=O)c2cccc(NC(=O)C(C)(C)N)c2)c1 [XL147] (first compound 0.4 µM, partner dose 0.8 µM)",150,523,114,131,40.5,77.5,212,53,403,125,369,206,133,95.3
"CC1(C)CCC(c2ccc(Cl)cc2)=C(CN2CCN(c3ccc(C(=O)NS(=O)(=O)c4ccc(N[C@H](CCN5CCOCC5)CSc5ccccc5)c(S(=O)(=O)C(F)(F)F)c4)cc3)CC2)C1 + Nc1ccn([C@@H]2O[C@H](CO)[C@@H](O)C2(F)F)c(=O)n1 [gemcitabine] (first compound 0.4 µM, partner dose 0.0004 µM)",473,172,76.7,189,83.1,52.9,123,94.4,138,194,605,41.6,146,258
"CC(=O)O[C@@]12CO[C@@H]1C[C@H](O)[C@@]1(C)C(=O)[C@H](O)C3=C(C)[C@@H](OC(=O)[C@H](O)[C@@H](NC(=O)OC(C)(C)C)c4ccccc4)C[C@@](O)([C@@H](OC(=O)c4ccccc4)[C@H]21)C3(C)C [Docetaxel] + Nc1ccn([C@@H]2O[C@H](CO)[C@@H](O)C2(F)F)c(=O)n1 [gemcitabine] (first compound 0.0001 µM, partner dose 0.0004 µM)",493,746,273,87.4,229,640,519,579,294,447,178,246,127,440
"C[C@@H](N)c1ccc(C(=O)Nc2ccnc3[nH]ccc23)cc1 + COCC[n+]1c2c(n(Cc3cnccn3)c1C)C(=O)c1ccccc1C2=O [YM155] (first compound 0.4 µM, partner dose 0.0004 µM)",559,119,33.8,147,99,170,21.1,94.8,17.6,203,115,63,62.9,59.2
"Cn1sc(=O)n(Cc2ccccc2)c1=O + C[C@@H](Oc1cc(-c2cnn(C3CCNCC3)c2)cnc1N)c1c(Cl)ccc(F)c1Cl [Crizotinib] (first compound 0.4 µM, partner dose 0.2 µM)",38.6,131,124,90.7,39,42,32.1,144,76.4,72.1,98.4,46.4,91.9,76.8
"NC1(c2ccc(-c3nc4ccn5c(=O)[nH]nc5c4cc3-c3ccccc3)cc2)CCC1 + Cn1c(=O)n(-c2ccc(C(C)(C)C#N)cc2)c2c3cc(-c4cnc5ccccc5c4)ccc3ncc21 [NVP-BEZ235] (first compound 0.4 µM, partner dose 0.004 µM)",138,148,130,96.8,160,203,122,284,391,123,97.4,124,130,208
"NC1(c2ccc(-c3nc4ccn5c(=O)[nH]nc5c4cc3-c3ccccc3)cc2)CCC1 + C[C@@H](Oc1cc(-c2cnn(C3CCNCC3)c2)cnc1N)c1c(Cl)ccc(F)c1Cl [Crizotinib] (first compound 0.4 µM, partner dose 0.2 µM)",178,112,195,133,127,35.6,388,189,162,155,111,142,91.2,97.3
"C[C@]1(O)C[C@@H](c2nc(-c3ccc4ccc(-c5ccccc5)nc4c3)c3c(N)nccn32)C1 + NC1(c2ccc(-c3nc4ccn5c(=O)[nH]nc5c4cc3-c3ccccc3)cc2)CCC1 [MK2206] (first compound 0.4 µM, partner dose 0.4 µM)",89.7,119,40.1,35.2,98.8,68.3,33.7,127,140,68.1,104,57.6,94.3,124
"CS(=O)(=O)c1ccc(C(=O)Nc2ccc(Cl)c(-c3ccccn3)c2)c(Cl)c1 [vismodegib] + CCCCCCCCc1ccc(CCC(N)(CO)CO)cc1 [fingolimod] (first compound 1 µM, partner dose 2 µM)",103,115,38.7,83.4,87.8,108,52.2,193,133,77.7,107,38.7,101,44.8
"CCN(CC)CCNC(=O)c1c(C)[nH]c(/C=C2\C(=O)Nc3ccc(F)cc32)c1C [sunitinib] + Nc1nc(F)nc2c1ncn2[C@@H]1O[C@H](CO)[C@@H](O)[C@@H]1O [fludarabine] (first compound 0.4 µM, partner dose 0.2 µM)",182,333,222,45.4,302,617,2130,85,99.2,148,102,589,90.2,59.4
"CS(=O)(=O)c1ccc(C(=O)Nc2ccc(Cl)c(-c3ccccn3)c2)c(Cl)c1 [vismodegib] + CN1CCN(c2ccc3nc(-c4c(N)c5c(F)cccc5[nH]c4=O)[nH]c3c2)CC1 [Dovitinib] (first compound 1 µM, partner dose 0.1 µM)",173,134,100,45.9,142,69.6,64,124,58.8,32.8,82,50.3,96.2,97.6
"CS(=O)(=O)c1ccc(C(=O)Nc2ccc(Cl)c(-c3ccccn3)c2)c(Cl)c1 [vismodegib] + Cc1nc(Nc2ncc(C(=O)Nc3c(C)cccc3Cl)s2)cc(N2CCN(CCO)CC2)n1 [dasatanib] (first compound 1 µM, partner dose 0.004 µM)",50.6,170,134,59.8,89.2,51.9,39.4,111,129,204,123,82.9,102,500
"C[C@]1(O)C[C@@H](c2nc(-c3ccc4ccc(-c5ccccc5)nc4c3)c3c(N)nccn32)C1 + C[C@]1(c2nc3c(C(N)=O)cccc3[nH]2)CCCN1 [Veliparib] (first compound 0.4 µM, partner dose 1.4 µM)",114,82.3,99.2,164,86.5,65.6,55.8,93.6,107,34.6,115,41.9,109,86.1
"CN(c1ncccc1CNc1nc(Nc2ccc3c(c2)CC(=O)N3)ncc1C(F)(F)F)S(C)(=O)=O + CN1CCN(c2ccc3nc(-c4c(N)c5c(F)cccc5[nH]c4=O)[nH]c3c2)CC1 [Dovitinib] (first compound 0.08 µM, partner dose 0.1 µM)",51.9,35.3,40.1,107,73.3,68.2,286,39.7,200,252,116,56.5,80.1,55.6

# Look-ups from the entries so far.
# cleaved PARP positive nuclei fraction (MeWo) [%] with CCN(CC)CCNC(=O)c1c(C)[nH]c(/C=C2\C(=O)Nc3ccc(F)cc32)c1C [sunitinib] + Nc1nc(F)nc2c1ncn2[C@@H]1O[C@H](CO)[C@@H](O)[C@@H]1O [fludarabine] (first compound 0.4 µM, partner dose 0.2 µM) reads 333
# cleaved PARP positive nuclei fraction (WM1716) [%] with NC1(c2ccc(-c3nc4ccn5c(=O)[nH]nc5c4cc3-c3ccccc3)cc2)CCC1 + Cn1c(=O)n(-c2ccc(C(C)(C)C#N)cc2)c2c3cc(-c4cnc5ccccc5c4)ccc3ncc21 [NVP-BEZ235] (first compound 0.4 µM, partner dose 0.004 µM) reads 123
